PubChem BioAssay AID1159584 – Peter MacCallum Cancer Centre, 2016

- Assay: 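Genes whose loss is lethal only together with E-cadherin loss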 (primary screen)
- Cells: human MCF10A breast epithelial cells, parental and CDH1-null
- Reagent: siRNA against human genes
- Measurement: 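Cell viability by CellTiter-Glo ATP luminescence, each line scaled to the mean of mock wells across plates, then CDH1-null over parental ratio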
- Reading the numbers: CDH1-null / parental viability ratio: higher = CDH1-null cells survive relatively better than parental
Shown is an unselected part of about 18,000 reagents. Further read-outs or replicates are left out here. Reagent sequences are not shown. Not given: the amount of reagent, the time to read-out.

| gene | CDH1-null / parental viability ratio |
| --- | --- |
| ZSCAN4 | 0.86 |
| STRBP | 1.17 |
| ATG4B | 1.1 |
| SEC63 | 0.82 |
| LEAP2 | 1.43 |
| OR6N1 | 1.42 |
| MAN2C1 | 0.94 |
| OR2D2 | 0.78 |
| TSPAN1 | 1.12 |
| TPH1 | 0.92 |
| CDPF1 | 1.11 |
| BIVM | 1.11 |
| RBL2 | 0.88 |
| RNF20 | 0.86 |
| FOSB | 1.33 |
| TSKU | 1.05 |
| NIT1 | 1.09 |
| AP5B1 | 0.97 |
| UBTD2 | 0.68 |
| TSTD2 | 0.94 |
| UPF3B | 0.99 |
| PIGO | 1.14 |
| PASK | 0.75 |
| TXNDC15 | 0.71 |
| CATSPERD | 0.97 |
| BRWD1 | 0.99 |
| SH3YL1 | 0.88 |
| ARID4A | 0.47 |
| TUBB4A | 0.79 |
| SASH1 | 0.68 |
| CANT1 | 1.01 |
| COX6B2 | 0.84 |
| ANKRD36 | 1.04 |
| IQCN | 1.14 |
| OR7D4 | 0.84 |
| TUBB6 | 0.99 |
| GPR83 | 0.9 |
| ZNF211 | 0.92 |
| USP9X | 1.27 |
| ACAD8 | 0.74 |
| TMEM260 | 1.33 |
| CTAG1A | 0.87 |
| STUM | 0.83 |
| ADIG | 0.89 |
| SAMD7 | 0.98 |
| H2AB1 | 0.7 |
